Target: T1, GABA-A receptor; alpha-3/beta-3/gamma-2 (Homo sapiens, UniProt P18507+P28472+P34903)
T1 sequence (P18507 whole entry): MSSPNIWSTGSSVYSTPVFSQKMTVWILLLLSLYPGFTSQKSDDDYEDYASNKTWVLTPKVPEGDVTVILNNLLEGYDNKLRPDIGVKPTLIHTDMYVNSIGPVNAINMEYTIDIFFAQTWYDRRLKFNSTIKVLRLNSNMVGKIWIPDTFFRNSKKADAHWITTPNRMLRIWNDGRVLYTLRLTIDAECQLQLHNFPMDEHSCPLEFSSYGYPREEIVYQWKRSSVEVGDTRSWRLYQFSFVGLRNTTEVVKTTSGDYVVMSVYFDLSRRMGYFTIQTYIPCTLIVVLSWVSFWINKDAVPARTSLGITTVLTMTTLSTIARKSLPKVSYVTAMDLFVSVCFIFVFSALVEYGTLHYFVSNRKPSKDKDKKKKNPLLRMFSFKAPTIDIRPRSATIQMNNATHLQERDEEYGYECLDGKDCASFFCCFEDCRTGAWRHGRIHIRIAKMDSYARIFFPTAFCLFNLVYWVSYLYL
T1 sequence (P28472 whole entry): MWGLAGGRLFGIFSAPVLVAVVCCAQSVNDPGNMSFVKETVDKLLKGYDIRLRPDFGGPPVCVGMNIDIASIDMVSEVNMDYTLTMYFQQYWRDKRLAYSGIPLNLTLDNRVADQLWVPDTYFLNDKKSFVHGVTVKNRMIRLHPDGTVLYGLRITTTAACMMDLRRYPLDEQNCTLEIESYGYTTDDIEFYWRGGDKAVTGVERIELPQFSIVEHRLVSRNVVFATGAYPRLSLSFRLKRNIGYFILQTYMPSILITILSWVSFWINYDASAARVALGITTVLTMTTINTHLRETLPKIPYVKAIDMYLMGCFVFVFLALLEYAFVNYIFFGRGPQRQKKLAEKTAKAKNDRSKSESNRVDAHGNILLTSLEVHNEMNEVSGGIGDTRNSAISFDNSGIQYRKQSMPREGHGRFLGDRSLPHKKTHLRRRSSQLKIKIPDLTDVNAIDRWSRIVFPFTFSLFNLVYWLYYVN
T1 sequence (P34903 whole entry): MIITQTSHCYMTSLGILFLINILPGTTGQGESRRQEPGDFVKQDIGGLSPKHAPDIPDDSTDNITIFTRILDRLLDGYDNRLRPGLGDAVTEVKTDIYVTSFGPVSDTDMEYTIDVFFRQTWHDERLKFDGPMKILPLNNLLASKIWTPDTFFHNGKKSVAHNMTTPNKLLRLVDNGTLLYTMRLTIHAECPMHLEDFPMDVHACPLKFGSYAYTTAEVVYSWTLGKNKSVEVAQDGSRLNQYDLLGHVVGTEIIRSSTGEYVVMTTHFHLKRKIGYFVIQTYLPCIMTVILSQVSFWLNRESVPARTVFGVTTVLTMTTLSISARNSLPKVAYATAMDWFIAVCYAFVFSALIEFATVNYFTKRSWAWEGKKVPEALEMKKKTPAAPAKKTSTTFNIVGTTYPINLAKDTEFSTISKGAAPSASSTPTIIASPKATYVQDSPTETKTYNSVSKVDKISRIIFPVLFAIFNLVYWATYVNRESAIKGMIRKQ
Test: Binding affinity to human alpha3beta3gamma2 GABA receptor expressed in Xenopus laevis oocytes
Assay type: cell-based, Oocyte

`CN1C(=O)CN=C(c2ccccc2)c2cc(Cl)ccc21` [DIAZEPAM] was tested, and the EC50 was 131 nM.

From ChEMBL document CHEMBL1629416, “Developing dual functional allosteric modulators of GABA(A) receptors” (Bioorg Med Chem, 2010)
